Results on 1 compound are retold here after ChEMBL document CHEMBL4177670, “Potential antimicrobial agents from triazole-functionalized 2H-benzo[b][1,4]oxazin-3(4H)-ones” (2017).

The test system of the assay is Pseudomonas aeruginosa. Kind of assay: microbe, parasite or virus in culture. Conditions: MTCC 2453, 24 h.

Values after ≈ are worked out from the molar mass of the structure shown.

`O=C(O)c1cn(C2CC2)c2cc(N3CCNCC3)c(F)cc2c1=O` [CIPROFLOXACIN]: the MIC was found to be 0.9 mg/L (≈ 2.72 µM).
